The results in this text go back to paper PMC11381347.

The chains behind the UniProt entries cited, without tags or fusion partners. Where a name states a change or a piece, a line headed by the entry shows the natural chain unless it says otherwise.
UniProt O15047: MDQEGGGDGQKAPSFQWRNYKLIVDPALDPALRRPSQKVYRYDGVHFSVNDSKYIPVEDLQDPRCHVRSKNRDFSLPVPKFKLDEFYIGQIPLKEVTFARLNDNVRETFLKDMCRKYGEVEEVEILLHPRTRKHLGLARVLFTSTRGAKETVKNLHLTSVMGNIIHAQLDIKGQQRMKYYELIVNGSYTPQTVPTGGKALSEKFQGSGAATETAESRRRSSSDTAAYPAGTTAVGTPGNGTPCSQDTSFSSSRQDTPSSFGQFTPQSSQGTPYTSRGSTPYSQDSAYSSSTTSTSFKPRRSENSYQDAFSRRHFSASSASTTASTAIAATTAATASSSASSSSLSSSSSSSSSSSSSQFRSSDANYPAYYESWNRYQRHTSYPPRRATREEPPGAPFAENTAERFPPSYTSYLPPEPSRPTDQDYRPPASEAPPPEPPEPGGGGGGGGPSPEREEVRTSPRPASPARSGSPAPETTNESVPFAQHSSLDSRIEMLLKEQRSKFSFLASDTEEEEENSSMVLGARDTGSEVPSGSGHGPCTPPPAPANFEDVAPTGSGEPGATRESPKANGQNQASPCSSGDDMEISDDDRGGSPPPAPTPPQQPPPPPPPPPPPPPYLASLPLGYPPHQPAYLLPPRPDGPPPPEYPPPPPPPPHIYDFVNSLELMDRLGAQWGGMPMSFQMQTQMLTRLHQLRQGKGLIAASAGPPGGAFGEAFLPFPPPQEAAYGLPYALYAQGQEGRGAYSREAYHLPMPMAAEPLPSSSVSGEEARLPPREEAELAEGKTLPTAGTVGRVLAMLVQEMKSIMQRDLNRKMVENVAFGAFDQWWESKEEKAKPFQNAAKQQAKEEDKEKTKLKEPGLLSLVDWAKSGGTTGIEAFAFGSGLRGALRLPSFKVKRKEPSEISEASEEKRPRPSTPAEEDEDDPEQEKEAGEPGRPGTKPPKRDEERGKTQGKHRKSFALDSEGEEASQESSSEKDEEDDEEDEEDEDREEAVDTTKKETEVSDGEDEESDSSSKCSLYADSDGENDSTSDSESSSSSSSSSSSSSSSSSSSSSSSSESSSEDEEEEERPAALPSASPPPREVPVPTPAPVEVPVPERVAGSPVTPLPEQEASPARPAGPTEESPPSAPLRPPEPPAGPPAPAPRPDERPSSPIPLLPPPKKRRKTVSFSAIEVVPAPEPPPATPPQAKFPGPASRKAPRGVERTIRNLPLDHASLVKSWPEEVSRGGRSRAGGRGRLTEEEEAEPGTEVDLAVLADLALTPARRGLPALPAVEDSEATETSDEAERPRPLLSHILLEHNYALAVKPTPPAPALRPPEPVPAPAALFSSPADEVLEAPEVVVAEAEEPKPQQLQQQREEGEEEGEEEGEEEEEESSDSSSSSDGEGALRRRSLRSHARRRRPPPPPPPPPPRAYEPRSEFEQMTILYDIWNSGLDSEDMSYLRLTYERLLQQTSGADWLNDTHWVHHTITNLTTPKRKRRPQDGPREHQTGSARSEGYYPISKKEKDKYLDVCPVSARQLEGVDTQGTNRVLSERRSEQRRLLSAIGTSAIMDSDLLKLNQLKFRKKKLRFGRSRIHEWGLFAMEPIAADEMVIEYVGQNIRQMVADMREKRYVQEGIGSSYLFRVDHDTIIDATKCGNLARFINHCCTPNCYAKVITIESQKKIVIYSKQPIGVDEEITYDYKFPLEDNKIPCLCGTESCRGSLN
UniProt Q8NFC6: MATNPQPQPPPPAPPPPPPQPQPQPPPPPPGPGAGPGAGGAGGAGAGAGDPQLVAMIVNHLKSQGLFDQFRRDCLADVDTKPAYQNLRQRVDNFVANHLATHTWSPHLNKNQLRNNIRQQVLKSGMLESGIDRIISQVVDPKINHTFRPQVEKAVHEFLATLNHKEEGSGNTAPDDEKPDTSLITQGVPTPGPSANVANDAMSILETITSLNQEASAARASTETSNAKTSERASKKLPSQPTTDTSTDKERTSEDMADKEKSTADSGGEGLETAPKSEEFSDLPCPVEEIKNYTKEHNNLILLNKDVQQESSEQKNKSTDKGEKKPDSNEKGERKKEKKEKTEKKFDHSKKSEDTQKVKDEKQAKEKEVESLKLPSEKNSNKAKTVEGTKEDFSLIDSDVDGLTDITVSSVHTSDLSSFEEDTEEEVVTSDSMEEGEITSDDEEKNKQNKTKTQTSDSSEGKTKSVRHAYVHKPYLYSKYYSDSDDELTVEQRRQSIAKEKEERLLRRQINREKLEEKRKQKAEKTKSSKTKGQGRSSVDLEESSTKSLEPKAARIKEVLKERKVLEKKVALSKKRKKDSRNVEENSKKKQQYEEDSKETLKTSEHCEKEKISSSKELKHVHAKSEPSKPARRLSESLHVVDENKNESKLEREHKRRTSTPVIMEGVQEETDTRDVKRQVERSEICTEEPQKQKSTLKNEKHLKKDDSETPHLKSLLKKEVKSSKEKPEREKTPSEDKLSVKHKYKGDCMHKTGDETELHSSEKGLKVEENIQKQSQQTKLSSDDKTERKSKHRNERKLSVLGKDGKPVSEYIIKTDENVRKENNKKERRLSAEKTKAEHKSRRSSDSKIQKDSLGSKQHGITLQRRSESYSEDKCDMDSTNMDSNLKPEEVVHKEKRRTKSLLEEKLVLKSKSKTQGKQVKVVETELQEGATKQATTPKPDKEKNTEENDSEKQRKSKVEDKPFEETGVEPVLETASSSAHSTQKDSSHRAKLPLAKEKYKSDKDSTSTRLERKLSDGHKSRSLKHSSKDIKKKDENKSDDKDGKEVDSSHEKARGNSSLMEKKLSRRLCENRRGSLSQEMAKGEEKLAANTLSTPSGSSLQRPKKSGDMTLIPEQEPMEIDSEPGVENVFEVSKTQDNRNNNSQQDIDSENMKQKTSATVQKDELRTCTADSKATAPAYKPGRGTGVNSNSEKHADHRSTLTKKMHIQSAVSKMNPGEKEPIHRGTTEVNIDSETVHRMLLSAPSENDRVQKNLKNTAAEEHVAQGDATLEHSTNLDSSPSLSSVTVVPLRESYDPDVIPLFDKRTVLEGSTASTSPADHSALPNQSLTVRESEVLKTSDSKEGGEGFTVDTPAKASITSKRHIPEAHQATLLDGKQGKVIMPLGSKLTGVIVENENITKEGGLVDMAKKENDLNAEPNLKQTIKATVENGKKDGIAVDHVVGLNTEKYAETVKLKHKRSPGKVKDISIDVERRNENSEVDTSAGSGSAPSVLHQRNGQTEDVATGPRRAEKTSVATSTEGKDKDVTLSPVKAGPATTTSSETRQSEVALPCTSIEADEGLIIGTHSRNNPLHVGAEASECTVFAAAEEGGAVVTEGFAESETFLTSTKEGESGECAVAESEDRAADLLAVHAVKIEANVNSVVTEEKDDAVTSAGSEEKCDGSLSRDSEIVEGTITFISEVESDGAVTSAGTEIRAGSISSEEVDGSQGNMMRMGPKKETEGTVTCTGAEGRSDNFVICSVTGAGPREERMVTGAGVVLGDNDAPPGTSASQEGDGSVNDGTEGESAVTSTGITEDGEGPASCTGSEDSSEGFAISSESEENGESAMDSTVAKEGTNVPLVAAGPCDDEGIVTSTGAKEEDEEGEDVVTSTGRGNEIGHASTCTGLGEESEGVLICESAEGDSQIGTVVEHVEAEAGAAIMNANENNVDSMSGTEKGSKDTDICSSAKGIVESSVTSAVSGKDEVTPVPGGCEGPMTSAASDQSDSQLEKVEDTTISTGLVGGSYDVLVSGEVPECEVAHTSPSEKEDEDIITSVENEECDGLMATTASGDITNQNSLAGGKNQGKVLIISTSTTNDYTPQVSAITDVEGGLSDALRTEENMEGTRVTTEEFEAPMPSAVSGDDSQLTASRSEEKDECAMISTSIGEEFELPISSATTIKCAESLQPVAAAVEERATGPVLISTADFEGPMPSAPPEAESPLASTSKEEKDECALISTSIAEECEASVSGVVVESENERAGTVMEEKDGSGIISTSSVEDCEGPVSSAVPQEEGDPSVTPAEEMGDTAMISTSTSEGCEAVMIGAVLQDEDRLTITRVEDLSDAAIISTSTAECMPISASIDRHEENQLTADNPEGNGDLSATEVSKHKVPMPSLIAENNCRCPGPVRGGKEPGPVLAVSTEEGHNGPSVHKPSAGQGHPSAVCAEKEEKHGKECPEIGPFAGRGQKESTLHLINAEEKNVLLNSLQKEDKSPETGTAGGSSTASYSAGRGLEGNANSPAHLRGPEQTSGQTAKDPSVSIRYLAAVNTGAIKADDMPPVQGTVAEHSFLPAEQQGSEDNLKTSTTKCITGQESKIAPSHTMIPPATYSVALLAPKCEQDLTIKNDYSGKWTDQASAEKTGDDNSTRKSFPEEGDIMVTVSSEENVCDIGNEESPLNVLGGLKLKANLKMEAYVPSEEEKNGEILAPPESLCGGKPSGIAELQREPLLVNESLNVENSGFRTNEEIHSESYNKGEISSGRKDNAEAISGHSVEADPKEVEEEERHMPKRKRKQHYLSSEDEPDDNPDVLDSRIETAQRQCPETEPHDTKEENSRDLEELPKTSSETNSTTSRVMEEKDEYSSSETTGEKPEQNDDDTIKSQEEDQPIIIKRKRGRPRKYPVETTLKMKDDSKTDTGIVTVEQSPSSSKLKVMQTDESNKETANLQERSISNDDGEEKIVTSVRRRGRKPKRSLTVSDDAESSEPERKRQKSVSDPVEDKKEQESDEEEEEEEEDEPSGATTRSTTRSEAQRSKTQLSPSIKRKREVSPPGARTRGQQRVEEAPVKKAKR

Experiment [1] concerns the target SETD1A double-motif mutant, F5-5A with F1 (cyclin K-binding site) (human) (UniProt O15047). The experiment in a line: co-IP; 293T cells transfected with tagged constructs; SETD1A constructs precipitated (anti-FLAG M2 or anti-HA agarose, overnight 4 °C), BOD1L and cyclin K detected by western blot; washes with 0.5 M STEN buffer (500 mM NaCl, 0.2% NP-40). (In general: In western blotting, separated proteins are transferred to a membrane and probed.)

The target in experiment [2] is SETD1A F5-5A (alanine substitution mutant of LNRKM) (human) (UniProt O15047). The experiment is described as above.
Experiment [3] deals with SETD1A double-motif mutant, F5-5A with F2 (BuGZ/BUB3-binding site) (human) (UniProt O15047). The description is as above.
Experiment [4] has as its target BOD1L ΔIDR (mutant lacking the conserved IDR) (human) (UniProt Q8NFC6). The experiment in a line: co-IP; 293T cells; BOD1L constructs precipitated (anti-FLAG M2 or anti-HA agarose, overnight 4 °C), SETD1A detected by western blot; washes with 0.5 M STEN buffer (500 mM NaCl, 0.2% NP-40).
For experiment [5], the target named is BOD1L ΔShg (mutant lacking the Shg1 domain) (human) (UniProt Q8NFC6). The experiment is described as above.

No constants are given. Whether binding was seen depends on the method and setting. Binding seen in cells or lysates may run through a third protein. For some assays here: Binding calls can cover weak binding; strength is not graded here.

Turning to “BOD1L, full-length human (from UniProt Q8NFC6 1-3051)”, the binding result in experiment [1], in experiment [2] and in experiment [3] was “no binding” throughout.

On to “SETD1A (wild type) (from UniProt O15047 1-1707)”, for which the results for the binding result in experiment [4] and in experiment [5] were “binds” and “no binding”, respectively.
